# Experimental data as given in patent US6436428B1, “Device and method for treating urinary incontinence in females” (Enhance Pharmaceuticals, Inc., priority 2000, dated 2002).
# At least one compound was matched to its structure with a doubt left.
# Assays:
# urinary bladder = assay: Cystometry in rabbits after 7 days with oxybutynin vaginal inserts; assay type: in vivo, rabbit; settings: for micturition pressure: vs placebo
# [1] = In vitro drug release testing of trifluoropropylmethyl/dimethyl siloxane elastomer insert segments; assay type: physicochemical; settings: segments of Example 6 (about 32 mg oxybutynin), 500 ml 0.05 M SDS pH 6.5, 37° C., 100 rpm, 7 days, average of three samples
compound,measurement,setting,value
"CCN(CC)CC#CCOC(=O)C(O)(c1ccccc1)C1CCCCC1 (stereo not drawn) [oxybutynin, 4-diethylamino-2-butynylphenylcyclohexylglycolate]",micturition pressure,"urinary bladder; 1 mg/day vaginal insert, 7 days",significant decrease
same,micturition pressure,"urinary bladder; 5 mg/day vaginal insert, 7 days",significant decrease
same,bladder compliance,"urinary bladder; one week after vaginal application of the inserts, 0.5-5 mg/day",dose related increased compliance
same,cystometric pressures,"urinary bladder; vaginal inserts 0.5, 1 and 5 mg/day, 7 days, FIG. 12",dose-dependent decrease
same,"micturition pressure, across doses","urinary bladder; vaginal inserts 0.5, 1 and 5 mg/day, 7 days, FIG. 14",dose-dependent decrease
same,oxybutynin released on average per day,[1],~0.5 mg of oxybutynin per day
